# Data taken from ChEMBL document CHEMBL1687827, “Profiling the Aspergillus fumigatus proteome in response to caspofungin” (2011).
# This continues a long series; more values of the same kind are listed elsewhere.
# What was measured:
# Type in all cases: functional
# Aspergillus fumigatus [1] = assay: Induction of change in 14-3-3 family protein ArtA, putative protein level in iTRAQ-116 labelled secreted fraction of drug-resistant Aspergillus fumigatus EMFR-S678P at 0.12 ug/ml after 48 hrs in YPD medium by MS (MS/MS) analysis relative to control
# Aspergillus fumigatus [2] = assay: Induction of change in 60s ribosomal protein L24, putative protein level in iTRAQ114 labelled secreted fraction of drug-susceptible Aspergillus fumigatus KU80 delta-akuB at 0.12 ug/ml after 24 hrs in YPD medium by MS (MS/MS) analysis relative to control
# Aspergillus fumigatus [3] = assay: Induction of change in ubiquinol-cytochrome C reductase complex core protein 2, putative protein level in iTRAQ-116 labelled secreted fraction of drug-resistant Aspergillus fumigatus EMFR-S678P at 0.12 ug/ml after 48 hrs in YPD medium by MS (MS/MS) analysis relative to control
# Aspergillus fumigatus [4] = assay: Induction of change in Hsp90 binding co-chaperone (Sba1), putative protein level in iTRAQ121 labelled cell wall fraction of drug-susceptible Aspergillus fumigatus KU80 delta-akuB at 0.12 ug/ml after 48 hrs in YPD medium by MS (MS/MS) analysis relative to control
# Aspergillus fumigatus [5] = assay: Induction of change in mycelial catalase Cat1 gene expression in drug-susceptible Aspergillus fumigatus KU80 delta-akuB at 0.12 ug/ml after 24 hrs in YPD medium by microarray analysis relative to control
# Aspergillus fumigatus [6] = assay: Induction of change in 60S ribosomal protein L1 gene expression in drug-susceptible Aspergillus fumigatus KU80 delta-akuB at 0.12 ug/ml after 24 hrs in YPD medium by microarray analysis relative to control
# Aspergillus fumigatus [7] = assay: Induction of change in tripeptidyl-peptidase (TppA), putative protein level in iTRAQ-118 labelled cell wall fraction of drug-susceptible Aspergillus fumigatus KU80 delta-akuB at 0.12 ug/ml after 24 hrs in YPD medium by MS (MS/MS) analysis relative to control
# Aspergillus fumigatus [8] = assay: Induction of change in hypothetical protein locus AFUA_8G00430 level in iTRAQ-116 labelled secreted fraction of drug-susceptible Aspergillus fumigatus KU80 delta-akuB at 0.12 ug/ml after 48 hrs in YPD medium by MS (MS/MS) analysis relative to control
# Aspergillus fumigatus [9] = assay: Induction of change in Plasma membrane H-ATPase Pma1 protein level in iTRAQ114 labelled cell wall fraction of drug-susceptible Aspergillus fumigatus KU80 delta-akuB at 0.12 ug/ml after 24 hrs in YPD medium by MS (MS/MS) analysis relative to control
# Aspergillus fumigatus [10] = assay: Induction of change in Ribosomal L28e protein family protein level in iTRAQ114 labelled cell wall fraction of drug-susceptible Aspergillus fumigatus KU80 delta-akuB at 0.12 ug/ml after 24 hrs in YPD medium by MS (MS/MS) analysis relative to control
# Aspergillus fumigatus [11] = assay: Induction of change in hypothetical protein locus AFUA_5G14680 level in iTRAQ-116 labelled secreted fraction of drug-resistant Aspergillus fumigatus EMFR-S678P at 0.12 ug/ml after 48 hrs in YPD medium by MS (MS/MS) analysis relative to control
# Aspergillus fumigatus [12] = assay: Induction of change in cobalamin-independent methionine synthase MetH/D protein level in iTRAQ-116 labelled secreted fraction of drug-susceptible Aspergillus fumigatus KU80 delta-akuB at 0.12 ug/ml after 48 hrs in YPD medium by MS (MS/MS) analysis relative to control
# Aspergillus fumigatus [13] = assay: Induction of change in ribosomal protein S9 protein level in iTRAQ114 labelled cell wall fraction of drug-susceptible Aspergillus fumigatus KU80 delta-akuB at 0.12 ug/ml after 24 hrs in YPD medium by MS (MS/MS) analysis relative to control
# Aspergillus fumigatus [14] = assay: Induction of change in 60S ribosomal protein L44 protein level in iTRAQ114 labelled cell wall fraction of drug-susceptible Aspergillus fumigatus KU80 delta-akuB at 0.12 ug/ml after 24 hrs in YPD medium by MS (MS/MS) analysis relative to control
# Aspergillus fumigatus [15] = assay: Induction of change in Ribosomal protein S13p/S18e protein level in iTRAQ114 labelled cell wall fraction of drug-resistant Aspergillus fumigatus EMFR-S678P at 0.12 ug/ml after 24 hrs in YPD medium by MS (MS/MS) analysis relative to control
# Aspergillus fumigatus [16] = assay: Induction of change in stearic acid desaturase (SdeA), putative gene expression in drug-susceptible Aspergillus fumigatus KU80 delta-akuB at 0.12 ug/ml after 48 hrs in YPD medium by microarray analysis relative to control
# Aspergillus fumigatus [17] = assay: Induction of change in isocitrate dehydrogenase Idp1, putative protein level in iTRAQ-118 labelled cell wall fraction of drug-resistant Aspergillus fumigatus EMFR-S678P at 0.12 ug/ml after 24 hrs in YPD medium by MS (MS/MS) analysis relative to control
# Aspergillus fumigatus [18] = assay: Induction of change in 1,3-beta-glucanosyltransferase Gel1 protein level in iTRAQ-116 labelled secreted fraction of drug-resistant Aspergillus fumigatus EMFR-S678P at 0.12 ug/ml after 48 hrs in YPD medium by MS (MS/MS) analysis relative to control
# Aspergillus fumigatus [19] = assay: Induction of change in major allergen and cytotoxin AspF1 protein level in iTRAQ114 labelled secreted fraction of drug-resistant Aspergillus fumigatus EMFR-S678P at 0.12 ug/ml after 24 hrs in YPD medium by MS (MS/MS) analysis relative to control
# Aspergillus fumigatus [20] = assay: Induction of change in 60S ribosomal protein L9 b protein level in iTRAQ114 labelled cell wall fraction of drug-susceptible Aspergillus fumigatus KU80 delta-akuB at 0.12 ug/ml after 24 hrs in YPD medium by MS (MS/MS) analysis relative to control
# Aspergillus fumigatus [21] = assay: Induction of change in 60S ribosomal protein L9 b gene expression in drug-susceptible Aspergillus fumigatus KU80 delta-akuB at 0.12 ug/ml after 24 hrs in YPD medium by microarray analysis relative to control
# Aspergillus fumigatus [22] = assay: Induction of change in cell wall protein PhiA protein level in iTRAQ-116 labelled secreted fraction of drug-susceptible Aspergillus fumigatus KU80 delta-akuB at 0.12 ug/ml after 48 hrs in YPD medium by MS (MS/MS) analysis relative to control
# Aspergillus fumigatus [23] = assay: Induction of change in ribosomal protein S8 protein level in iTRAQ114 labelled cell wall fraction of drug-susceptible Aspergillus fumigatus KU80 delta-akuB at 0.12 ug/ml after 24 hrs in YPD medium by MS (MS/MS) analysis relative to control
# Aspergillus fumigatus [24] = assay: Induction of change in outer mitochondrial membrane protein porin gene expression in drug-susceptible Aspergillus fumigatus KU80 delta-akuB at 0.12 ug/ml after 48 hrs in YPD medium by microarray analysis relative to control
# Aspergillus fumigatus [25] = assay: Induction of change in GPI-anchored cell wall organization protein Ecm33 protein level in iTRAQ-118 labelled cell wall fraction of drug-resistant Aspergillus fumigatus EMFR-S678P at 0.12 ug/ml after 24 hrs in YPD medium by MS (MS/MS) analysis relative to control
structure (smiles),measurement,setting,value
CC[C@H](C)C[C@H](C)CCCCCCCCC(=O)N[C@H]1C[C@@H](O)[C@@H](NCCN)NC(=O)[C@@H]2[C@@H](O)CCN2C(=O)[C@H]([C@H](O)CCN)NC(=O)[C@H]([C@H](O)[C@@H](O)c2ccc(O)cc2)NC(=O)[C@@H]2C[C@@H](O)CN2C(=O)[C@H]([C@@H](C)O)NC1=O [CASPOFUNGIN],fold change (FC),Aspergillus fumigatus [1],-1.15
same,fold change (FC),Aspergillus fumigatus [2],1.3
same,fold change (FC),Aspergillus fumigatus [3],-1.07
same,fold change (FC),Aspergillus fumigatus [4],-2.3
same,fold change (FC),Aspergillus fumigatus [5],-4.1
same,fold change (FC),Aspergillus fumigatus [6],3.3
same,fold change (FC),Aspergillus fumigatus [7],-2.3
same,fold change (FC),Aspergillus fumigatus [8],4
same,fold change (FC),Aspergillus fumigatus [9],-4.3
same,fold change (FC),Aspergillus fumigatus [10],1.3
same,fold change (FC),Aspergillus fumigatus [11],-1.07
same,fold change (FC),Aspergillus fumigatus [12],-2.1
same,fold change (FC),Aspergillus fumigatus [13],1.7
same,fold change (FC),Aspergillus fumigatus [14],2.1
same,fold change (FC),Aspergillus fumigatus [15],-1.23
same,fold change (FC),Aspergillus fumigatus [16],-2.7
same,fold change (FC),Aspergillus fumigatus [17],-1.23
same,fold change (FC),Aspergillus fumigatus [18],-1.15
same,fold change (FC),Aspergillus fumigatus [19],1.23
same,fold change (FC),Aspergillus fumigatus [20],1.7
same,fold change (FC),Aspergillus fumigatus [21],3.6
same,fold change (FC),Aspergillus fumigatus [22],-2.6
same,fold change (FC),Aspergillus fumigatus [23],1.2
same,fold change (FC),Aspergillus fumigatus [24],-2.6
same,fold change (FC),Aspergillus fumigatus [25],1.15
